# According to PubChem BioAssay AID2685 (National Center for Advancing Translational Sciences (NCATS), 2010):
# This is one part of the list. The main result of the screen is listed elsewhere. These columns were measured beside it and carry no call. Compounds called inactive in the main read-out are mostly missing here. Potencies come from curve fits of mixed quality, noted in brackets.
# Experiment: qHTS Assay for Lipid Storage Modulators in Drosophila S3 Cells;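 as to cell number change: cells counted by Cell Tracker Red CMTPX staining in the red channel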
# Settings: BODIPY lipid droplet fluorescence, 18-24 h; for cell number change: measured here: cell count max response, cells fed with added oleic acid
# Summary of the method: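 Drosophila S3 cells loaded with oleic acid (400 uM, as added) and compounds at several concentrations; lipid droplets imaged by 488-nm laser-scanning cytometry, 500–530 nm intensity and object ratio to cell channel. Percent activity normalized to 20 uM Triacsin C.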
# [1] = measured here: cell number channel AC50, cells fed with added oleic acid
# [2] = measured here: lipid fluorescence (Fed channel) AC50, cells fed with added oleic acid
SMILES,cell number change [%],AC50 [1],AC50 [2]
Cc1ccc(OCCNS(=O)(=O)c2ccc(Cl)cc2)cc1,-34.2,"29.1 µM [falling, single point]",
O=C(N/N=C/c1ccco1)/C(=C/c1cccc([N+](=O)[O-])c1)NC(=O)c1ccccc1,-8.95,,"0.326 µM [falling, full curve, poor fit]"
CCCCC[C@]12Cc3cc(OC)c(OC)cc3[C@H](O1)c1c(cc(C)oc1=O)O2,1.87,,"5.31 µM [rising, single point]"
Cc1[nH]c2ccccc2c1C(=O)CN1C(=O)NC(C)(c2ccc(Cl)cc2Cl)C1=O (centres undefined),-15.2,,"29.1 µM [falling, single point]"
Fc1cccc(F)c1-n1c(CN2CCCCC2)csc1=S,-59.7,"29.1 µM [falling, single point]","16.4 µM [falling, single point]"
Cc1cc(NC(=O)CSc2nc3ccccc3n2CC(=O)N2CCCCC2)no1,,"2.06 µM [rising, partial curve]","3.26 µM [rising, partial curve]"
O=C(COc1ccc(Br)cc1)Nc1ccc(-c2nnc(-c3ccco3)o2)cc1,-112,"29.1 µM [falling, single point]","29.1 µM [falling, single point]"
CC(C)(C)C(=O)NCC12C=CC(O1)C1C(=O)N(c3ccccc3)C(=O)C12 (centres undefined),,,"6.51 µM [falling, single point]"
COc1ccc(S(=O)(=O)N(C)c2ccc(C(=O)N3CCCC3)cc2)cc1OC,,,"0.206 µM [falling, single point]"
O=C(CN1CCN(c2ccccc2F)CC1)NCc1ccccc1,9.34,,"4.11 µM [falling, single point]"
CCN(CC)S(=O)(=O)c1ccc(C(=O)NCCCn2ccnc2)cc1,-0.24,,"6.51 µM [falling, single point]"
Cn1c(=O)c2c(nc(NCCNC(=O)c3ccco3)n2Cc2ccc(F)cc2)n(C)c1=O,6.41,"0.082 µM [rising, full curve, poor fit]",
CCn1c(CNC(=O)c2cc(OC)c(OC)c(OC)c2)cc2cc(C)ccc21,,,"6.51 µM [rising, single point]"
COc1ccc(N2C(=O)c3ccccc3C(C)(C)C2=O)cc1,2.17,,"6.51 µM [falling, partial curve, poor fit]"
CCOCCCNS(=O)(=O)c1ccc(NC(=O)c2ccccc2)cc1,,,"29.1 µM [rising, single point]"
O=C(CN1C(=O)S/C(=C\c2ccccc2)C1=O)NC1CCS(=O)(=O)C1 (centres undefined),,,"29.1 µM [falling, single point]"

# No new results follow: an excerpt of the list.
SMILES,cell number change [%],AC50 [1],AC50 [2]
CCCCC[C@]12Cc3cc(OC)c(OC)cc3[C@H](O1)c1c(cc(C)oc1=O)O2,1.87,,"5.31 µM [rising, single point]"
Cc1[nH]c2ccccc2c1C(=O)CN1C(=O)NC(C)(c2ccc(Cl)cc2Cl)C1=O (centres undefined),-15.2,,"29.1 µM [falling, single point]"
